For assay [1], the target named is T1, purified 3xFLAG-tagged EMC2 (human) (UniProt Q15006).
T1 sequence: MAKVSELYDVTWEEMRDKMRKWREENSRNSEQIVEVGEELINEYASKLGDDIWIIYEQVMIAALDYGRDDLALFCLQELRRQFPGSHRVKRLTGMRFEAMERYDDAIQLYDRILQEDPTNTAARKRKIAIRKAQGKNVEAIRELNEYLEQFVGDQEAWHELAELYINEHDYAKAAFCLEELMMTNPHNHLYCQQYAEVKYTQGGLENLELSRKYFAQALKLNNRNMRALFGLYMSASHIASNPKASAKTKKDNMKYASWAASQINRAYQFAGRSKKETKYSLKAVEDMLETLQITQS
Nature of the assay: co-IP.

Amino acid sequences for entries named in this document (tags omitted). Residues count along the entry.
UniProt Q9BYP7, residues 1641-1666: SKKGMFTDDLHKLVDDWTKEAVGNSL
UniProt Q9Y3S1, residues 2153-2178: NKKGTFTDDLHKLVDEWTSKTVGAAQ

Assay [2] addresses T2, full-length S. cerevisiae EMC5-3xFLAG, in vitro translated (S. cerevisiae) (UniProt P40540).
T2 sequence: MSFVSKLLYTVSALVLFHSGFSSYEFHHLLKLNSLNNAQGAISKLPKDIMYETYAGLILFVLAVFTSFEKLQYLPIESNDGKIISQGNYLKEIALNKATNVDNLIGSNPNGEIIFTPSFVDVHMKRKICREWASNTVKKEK
The assay is described as follows: co-IP.

No constants are given. Whether binding was seen depends on the method and setting. For part of these data: Binding seen in cells or lysates may run through a third protein. Some binding calls cover weakened binding; strength is not graded here. Tags and fused reporters may be left off the sequences shown.

Regarding “His14-bdSUMO-tagged WNK3 helix (residues 1641-1666) (from UniProt Q9BYP7 1641-1666) (domain or fragment)”, the binding entry in assay [1] is recorded as “binds”.

For the molecule “His14-bdSUMO-tagged WNK2 helix (residues 2153-2178) (from UniProt Q9Y3S1 2153-2178) (domain or fragment)”, the binding result in assay [1] was “binds”.

B1: 3xHA-tagged S. cerevisiae EMC2, in vitro translated (protein, UniProt P47133 1-292)
chain: MLKDLVREKLLTIMNTKAYTQFNPEQLLQLENEMKIYMKSGDSALTEGNYFFLMEMLFYVLVYRNQDVDAQVVYNTLRDRLGENSYKMVIMKATLLQINGNDKGAIEYLENLLNDDLEYETDFVTYVSIAKKLIAIKTTSKNLSQESVLKEVVALTDKFPLDAELWWYASEIYFEMGQFEKACYCLEQVLCITPFNYACFGRLSETLYYEALRSKKQTKTELLEKALKNALRSVELSELYLKGWALVNIISRELGRNKQNDLIKLSASKLKEISAKSNNKDKITAELILNKI
Take B1: the binding result in assay [2] was “binds”.

Values taken from paper doi:10.1101/2020.07.20.213066.
